Structures can show the parent of a compound that is named as a salt. Where two headings read alike, the source gives them in different places. Some entries share one result that the patent states for a list of compounds. For at least one compound, name, drawing or mass did not settle the structure.
Conditions: powder 10 mg, desiccator (relative humidity: 10%), ambient temperature (23±2° C.), seven days

SMILES: Nc1ncnc2c1ncn2[C@@H]1O[C@H](COP(=O)(O)OS(=O)(=O)O)[C@@H](OP(=O)(O)O)[C@H]1O [Potassium salt, 3′-phosphoadenosine 5′-phosphosulfate]
- Undecomposed PAPS (%) (listed as potassium salt): ≤ 65%

SMILES: Nc1ncnc2c1ncn2[C@@H]1O[C@H](COP(=O)(O)OS(=O)(=O)O)[C@@H](OP(=O)(O)O)[C@H]1O [Sodium salt, 3′-phosphoadenosine 5′-phosphosulfate]
- Undecomposed PAPS (%) (listed as sodium salt): ≤ 65%

SMILES: Nc1ncnc2c1ncn2[C@@H]1O[C@H](COP(=O)(O)OS(=O)(=O)O)[C@@H](OP(=O)(O)O)[C@H]1O [Lithium salt, 3′-phosphoadenosine 5′-phosphosulfate]
- Undecomposed PAPS (%) (listed as lithium salt): ≤ 65%

Reference: US7863438B2 (Yamasa Corporation, priority 2005, dated 2011)
